A short description of data set [1]: general procedure: Boc solid-phase peptide synthesis; PyBop; symmetric anhydrides (DCC); DCC/HOBt. The following applies: cyclisation step, 210 nm.
Data set [2] in a line: general procedure: Boc solid-phase peptide synthesis; Boc-Leu-OCH2-PAM resin; PyBop; symmetric anhydrides (DCC); DCC/HOBt. The following applies: whole synthesis, 210 nm, scale 0.5 mmoles.

[ ]: non-standard residue; d: D form. Dap = NC[C@H](N)C(=O)O

With cyclo(MDWFL), the “final HPLC purity” value in data set [1] was more than 99%.

As to H-MDWF[Dap]L-OH, the “final HPLC purity” value in data set [2] is given as more than 99%.

Source of the values: patent EP0636146B1 (A. MENARINI INDUSTRIE FARMACEUTICHE RIUNITE S.R.L., priority 1992, dated 1997).
